Experimental data: PubChem BioAssay AID1224826 (NIAID, 2016)

Test: 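Genes that change LPS-induced Tnf promoter activity in mouse macrophages when knocked down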 (primary screen)
System: RAW264.7 G9 macrophages from mouse bearing reporters for p65 (GFP) and the Tnf promoter (mCherry)
Reagents: siRNA pool against mouse genes, 100 nM
Timing: 16 h of LPS stimulation, after 2 days of siRNA transfection
Challenge: bacterial lipopolysaccharide (Salmonella minnesota R595), 10 ng/ml
Read-out: 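Nuclear mCherry signal of the Tnf promoter reporter measured by imaging after background removal, scaled to each plate median and turned into robust z-scores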
Direction: Tnf reporter robust z-score: higher = stronger Tnf promoter reporter signal after LPS; Tnf reporter intensity: higher = stronger Tnf promoter reporter signal
Call rule: 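a well counts as active at a score of -1.3 or below (Tlr4 knock-down control median) or above 3 (raised signal); controls and wells holding fewer than 50 cells are excluded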
Calls: active = Tnf reporter clearly lowered or raised; inactive = no clear change in Tnf reporter
Here is a random part of about 17,000 reagents tested. Of all reagents, about 1,110 (6.6%) got an active call. 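Active means lowered or raised reporter signal; replicate intensities are raw and not normalised per plate.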 Entries without a mark were called inactive.

target | Tnf reporter robust z-score | fewer than 50 cells in well | Tnf reporter intensity, replicate 1 | Tnf reporter intensity, replicate 2
Prmt3 | 0.4 | enough cells in well | 309 | 166
Trem4 | 0.69 | enough cells in well | 136 | 271
Adh4 | -0.97 | enough cells in well | 122 | 104
Tex13c3 | 1.07 | enough cells in well | 354 | 210
Mb | -0.17 | enough cells in well | 184 | 134
Tbpl1 | -0.79 | enough cells in well | 190 | 85.7
Or6c5 | – | fewer than 50 cells per well; well left out of calls | 62.9 | 57.6
Eps15 | 1.56 | enough cells in well | 327 | 377
Casp8ap2 | – | fewer than 50 cells per well; well left out of calls | 88.8 | 127
Npy | 1.33 | enough cells in well | 317 | 150
Pcdhb7 | -0.43 | enough cells in well | 107 | 133
P2ry13 | -0.11 | enough cells in well | 210 | 279
Mgp | 0 | enough cells in well | 291 | 182
Or8j3c | 1.89 | enough cells in well | 290 | 260
Or8b57 | 0.34 | enough cells in well | 150 | 162
Gpr162 | -0.39 | enough cells in well | 172 | 282
Dgki | -1.05 | enough cells in well | 116 | 110
Selenbp1 | -0.57 | enough cells in well | 249 | 153
Ccdc51 | -0.55 | enough cells in well | 176 | 89
Ppp6c | -0.39 | enough cells in well | 236 | 147
Yaf2 | -0.35 | enough cells in well | 188 | 221
Mrc1 | -0.43 | enough cells in well | 221 | 179
Zpr1 | 1.38 | enough cells in well | 185 | 179

A stretch from the list above:
target | Tnf reporter robust z-score | fewer than 50 cells in well | Tnf reporter intensity, replicate 1 | Tnf reporter intensity, replicate 2
Tex13c3 | 1.07 | enough cells in well | 354 | 210
Mb | -0.17 | enough cells in well | 184 | 134
Tbpl1 | -0.79 | enough cells in well | 190 | 85.7
Or6c5 | – | fewer than 50 cells per well; well left out of calls | 62.9 | 57.6
Eps15 | 1.56 | enough cells in well | 327 | 377
Casp8ap2 | – | fewer than 50 cells per well; well left out of calls | 88.8 | 127
Npy | 1.33 | enough cells in well | 317 | 150
Pcdhb7 | -0.43 | enough cells in well | 107 | 133

Additional records:
target | Tnf reporter robust z-score | fewer than 50 cells in well | Tnf reporter intensity, replicate 1 | Tnf reporter intensity, replicate 2
Tagap | – | fewer than 50 cells per well; well left out of calls | 147 | 48.3
Klk14 | -1.3 (active) | enough cells in well | 131 | 58.3
H1f0 | -0.49 | enough cells in well | 212 | 198
Or8k20 | -0.32 | enough cells in well | 147 | 151
Or4f61 | 0.94 | enough cells in well | 217 | 173
Il1b | – | fewer than 50 cells per well; well left out of calls | 217 | 74.5
Rhpn2 | 0.61 | enough cells in well | 162 | 147
Scg2 | -0.27 | enough cells in well | 302 | 172
Or12j5 | -0.45 | enough cells in well | 108 | 68.6
Vmn1r199 | 0.3 | enough cells in well | 130 | 60.3
Efhd2 | – | fewer than 50 cells per well; well left out of calls | 96.4 | 78.9
S100b | -0.39 | enough cells in well | 320 | 143
Fam13a | 0.17 | enough cells in well | 214 | 159
Fmo2 | 1.48 | enough cells in well | 352 | 218
Ufc1 | -0.22 | enough cells in well | 179 | 88.9
Disp2 | 4.43 (active) | enough cells in well | 456 | 293
2900052L18Rik | – | fewer than 50 cells per well; well left out of calls | 109 | 45.7
Chil4 | 0.79 | enough cells in well | 201 | 232
Zfp438 | 0.03 | enough cells in well | 214 | 203
Ttc4 | 0.73 | enough cells in well | 293 | 278
Golim4 | -0.01 | enough cells in well | 251 | 159
Kcnb2 | -0.09 | enough cells in well | 150 | 157
Mid1ip1 | 0.11 | enough cells in well | 165 | 76.3
Tnr | -0.97 | enough cells in well | 185 | 72.7
Insig2 | 0.59 | enough cells in well | 290 | 178
Rab11fip1 | -0.12 | enough cells in well | 157 | 146
Ninl | -0.1 | enough cells in well | 187 | 68.8
Arhgap4 | – | fewer than 50 cells per well; well left out of calls | 112 | 105
Ubp1 | 0.92 | enough cells in well | 163 | 111
Pitx3 | 0.61 | enough cells in well | 298 | 230
Scrn2 | 0.35 | enough cells in well | 148 | 138
Snx16 | – | fewer than 50 cells per well; well left out of calls | 93.9 | 44
Pdcd1lg2 | -0.71 | enough cells in well | 115 | 85.9
Or4k2 | -0.27 | enough cells in well | 55.9 | 106
Bhlhe23 | – | fewer than 50 cells per well; well left out of calls | 0 | 106
